This note sets out measurements from publication PMC9599603.

Sequences of proteins named here, by UniProt entry; tags and fusion partners are left off.
UniProt Q8IC05: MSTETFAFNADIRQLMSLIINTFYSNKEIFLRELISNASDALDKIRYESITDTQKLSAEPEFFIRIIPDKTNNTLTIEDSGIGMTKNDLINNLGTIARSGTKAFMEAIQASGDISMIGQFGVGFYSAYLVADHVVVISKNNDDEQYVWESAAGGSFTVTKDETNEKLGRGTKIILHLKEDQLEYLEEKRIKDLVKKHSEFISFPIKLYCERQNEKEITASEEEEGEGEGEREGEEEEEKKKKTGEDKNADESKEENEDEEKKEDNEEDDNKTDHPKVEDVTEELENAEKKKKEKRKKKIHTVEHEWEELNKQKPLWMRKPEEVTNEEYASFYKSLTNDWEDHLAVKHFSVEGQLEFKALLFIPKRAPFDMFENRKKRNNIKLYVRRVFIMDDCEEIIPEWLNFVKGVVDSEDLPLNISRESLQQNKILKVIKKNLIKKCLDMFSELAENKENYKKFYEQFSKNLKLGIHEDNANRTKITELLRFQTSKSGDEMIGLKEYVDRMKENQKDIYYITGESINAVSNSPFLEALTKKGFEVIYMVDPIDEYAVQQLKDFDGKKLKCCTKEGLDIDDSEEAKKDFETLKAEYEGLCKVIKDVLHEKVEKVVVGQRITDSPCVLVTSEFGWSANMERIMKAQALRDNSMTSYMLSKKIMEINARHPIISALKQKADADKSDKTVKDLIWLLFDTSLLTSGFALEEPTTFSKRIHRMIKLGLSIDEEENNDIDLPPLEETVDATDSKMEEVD

Experiment [1] deals with T1, PfSir2A, endogenous (P. falciparum (endogenous in 3D7 parasites)) (UniProt Q8IE47).
T1 sequence: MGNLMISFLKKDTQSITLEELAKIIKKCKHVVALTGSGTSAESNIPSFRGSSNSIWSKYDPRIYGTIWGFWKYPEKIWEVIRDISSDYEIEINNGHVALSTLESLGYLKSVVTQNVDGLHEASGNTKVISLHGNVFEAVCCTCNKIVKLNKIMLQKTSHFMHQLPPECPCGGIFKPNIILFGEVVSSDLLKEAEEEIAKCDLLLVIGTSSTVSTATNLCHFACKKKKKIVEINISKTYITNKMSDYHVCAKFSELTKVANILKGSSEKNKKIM
As to the kind of experiment: co-IP; schizont stage parasite lysate; anti-Hsp90 or anti-PfSir2A cross-linked to Protein A/G Plus Agarose beads (Pierce Crosslink Immunoprecipitation Kit); control IgG; Western blot.

Experiment [2] addresses His6-tagged PfHsp90 (P. falciparum) (UniProt Q8IC05). As to the kind of experiment: pull-down; copurification: bacterial lysates with His6-PfHsp90 and GST-PfSir2A (or GST alone) combined, applied to a Ni-NTA column, eluted with 250 mM imidazole, Western blot with anti-His6 and anti-GST. (Immunoblotting shows a protein as a band on a membrane.)
Experiment [3] concerns the target PfHsp90 (PF3D7_0708400), endogenous (P. falciparum (endogenous in 3D7 parasites)) (UniProt Q8IC05). As to the kind of experiment: co-IP; schizont stage parasite lysate; anti-Hsp90 or anti-PfSir2A cross-linked to Protein A/G Plus Agarose beads (Pierce Crosslink Immunoprecipitation Kit); control IgG; Western blot.

No constants are given. Whether binding was seen depends on the method and setting. In cells and extracts the contact can be indirect. Some results given as binding are weak or reduced against the parent protein; the word gives no strength. For part of these data: Sequences can lack the tags named with a protein.

Take “PfHsp90 (PF3D7_0708400), endogenous (from UniProt Q8IC05 1-745)”: the binding entry in experiment [1] is listed as “binds”.

B1: Glutathione S-Transferase (GST)-tagged PfSir2A (protein, UniProt Q8IE47 1-273)
chain: MGNLMISFLKKDTQSITLEELAKIIKKCKHVVALTGSGTSAESNIPSFRGSSNSIWSKYDPRIYGTIWGFWKYPEKIWEVIRDISSDYEIEINNGHVALSTLESLGYLKSVVTQNVDGLHEASGNTKVISLHGNVFEAVCCTCNKIVKLNKIMLQKTSHFMHQLPPECPCGGIFKPNIILFGEVVSSDLLKEAEEEIAKCDLLLVIGTSSTVSTATNLCHFACKKKKKIVEINISKTYITNKMSDYHVCAKFSELTKVANILKGSSEKNKKIM
As to B1, the binding result in experiment [2] was “binds”.

B2: PfSir2A, endogenous (protein, UniProt Q8IE47 1-273)
chain: MGNLMISFLKKDTQSITLEELAKIIKKCKHVVALTGSGTSAESNIPSFRGSSNSIWSKYDPRIYGTIWGFWKYPEKIWEVIRDISSDYEIEINNGHVALSTLESLGYLKSVVTQNVDGLHEASGNTKVISLHGNVFEAVCCTCNKIVKLNKIMLQKTSHFMHQLPPECPCGGIFKPNIILFGEVVSSDLLKEAEEEIAKCDLLLVIGTSSTVSTATNLCHFACKKKKKIVEINISKTYITNKMSDYHVCAKFSELTKVANILKGSSEKNKKIM
B2: in experiment [3], the binding result is “binds”.
